Reference: the supplement of paper PMC11546906
The list shows a part of the results. Repeats in this data set agree poorly, so a single value says little.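 A screen tested FDA-approved drugs combined with one-eighth-MIC colistin against a clinical mcr-1-positive, multidrug-resistant E. coli isolate, measuring OD600 at 24 h. Controls were untreated bacteria (growth) and broth alone (blank). An OD600 under 0.2 marked a combination as active.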

System: Escherichia coli 42 (mcr-1-positive clinical isolate)
Experiment: OD600 after 24 h growth with compound plus colistin (absorbance units (OD600)); higher = more bacterial growth (less inhibition)
Details: first compound 25 µM; colistin concentration 0.5 ug/mL; incubation time 24 h; 37 °C

Compound	OD600
CC(C)C[C@H](NC(=O)[C@H](Cc1ccccc1)NC(=O)c1cnccn1)B(O)O [Bortezomib] + CCC(C)CCCC(=O)N[C@@H](CCN)C(=O)N[C@H](C(=O)N[C@@H](CCN)C(=O)N[C@H]1CCNC(=O)[C@H]([C@@H](C)O)NC(=O)[C@H](CCN)NC(=O)[C@H](CCN)NC(=O)[C@H](CC(C)C)NC(=O)[C@@H](CC(C)C)NC(=O)[C@H](CCN)NC1=O)[C@@H](C)O [colistin]	inactive: 1
COc1ccc2c(c1)c(CC(=O)O)c(C)n2C(=O)c1ccc(Cl)cc1 [Indomethacin] + CCC(C)CCCC(=O)N[C@@H](CCN)C(=O)N[C@H](C(=O)N[C@@H](CCN)C(=O)N[C@H]1CCNC(=O)[C@H]([C@@H](C)O)NC(=O)[C@H](CCN)NC(=O)[C@H](CCN)NC(=O)[C@H](CC(C)C)NC(=O)[C@@H](CC(C)C)NC(=O)[C@H](CCN)NC1=O)[C@@H](C)O [colistin]	inactive: 0.941
COc1cc([C@@H]2c3cc4c(cc3[C@@H](O[C@@H]3O[C@@H]5CO[C@@H](C)O[C@H]5[C@H](O)[C@H]3O)[C@H]3COC(=O)[C@H]23)OCO4)cc(OC)c1O [Etoposide] + CCC(C)CCCC(=O)N[C@@H](CCN)C(=O)N[C@H](C(=O)N[C@@H](CCN)C(=O)N[C@H]1CCNC(=O)[C@H]([C@@H](C)O)NC(=O)[C@H](CCN)NC(=O)[C@H](CCN)NC(=O)[C@H](CC(C)C)NC(=O)[C@@H](CC(C)C)NC(=O)[C@H](CCN)NC1=O)[C@@H](C)O [colistin]	inactive: 1.02
